Experimental findings from publication PMC12013949 are described below.

The chains behind the UniProt entries cited, without tags or fusion partners. Residues count along the entry.
UniProt P29844, residues 19-656: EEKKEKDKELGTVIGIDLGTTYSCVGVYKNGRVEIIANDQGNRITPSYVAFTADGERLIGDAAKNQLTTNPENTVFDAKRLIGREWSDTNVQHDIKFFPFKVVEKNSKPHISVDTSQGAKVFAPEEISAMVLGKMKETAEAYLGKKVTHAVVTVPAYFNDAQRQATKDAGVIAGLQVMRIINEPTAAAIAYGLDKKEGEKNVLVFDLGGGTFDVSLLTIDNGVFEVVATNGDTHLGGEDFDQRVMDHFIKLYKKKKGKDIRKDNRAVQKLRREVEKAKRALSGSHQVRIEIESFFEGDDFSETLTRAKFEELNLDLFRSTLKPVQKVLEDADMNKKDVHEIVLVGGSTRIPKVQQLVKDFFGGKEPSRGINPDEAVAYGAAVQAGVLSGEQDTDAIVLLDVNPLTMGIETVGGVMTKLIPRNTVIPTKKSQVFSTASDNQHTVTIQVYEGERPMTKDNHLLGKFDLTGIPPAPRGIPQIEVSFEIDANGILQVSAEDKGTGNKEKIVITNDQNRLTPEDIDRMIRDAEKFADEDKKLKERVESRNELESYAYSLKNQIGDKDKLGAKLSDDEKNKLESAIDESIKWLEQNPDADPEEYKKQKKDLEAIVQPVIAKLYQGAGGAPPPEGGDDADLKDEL

This test deals with Flag-Hsc70-3 (pCDNA3.1-Flag-Hsc70-3) (Drosophila) (UniProt P29844). In words: co-IP; HEK293T cells co-transfected with pCDNA3.1-Flag or pCDNA3.1-Flag-Hsc70-3 and pCDNA3.1-HA-WRNexo, lysed after 48 h; anti-FLAG M2 gel, 4 °C for 2 h; six washes with lysis buffer; elution with 3× FLAG peptide; western blotting. (In general: A western blot detects proteins with antibodies after separation by electrophoresis.)

Results are given in words; binding and its absence hold for the method and conditions named. In cells and extracts the contact can be indirect. Some results given as binding are weak or reduced against the parent protein; the word gives no strength. Sequences can lack the tags named with a protein.

B1: HA-WRNexo (pCDNA3.1-HA-WRNexo) (protein, UniProt Q9VE86 1-353)
chain: MEKYLTKMPIKSKANEVPKEEAGVKKETPKVARKATKKDTPKELKDKENAGDDNTPKQTKGRPGRPAAKRKNLDTPDVTEKLAMEEENPPKRRSSRLTRSTRSMAEDGSPSPEKEKPEKLPFIKYKGAIKYFTESQDIAASADDVLQWVEKQKDEVVPMAFDMEWPFSFQTGPGKSAVIQICVDEKCCYIYQLTNVKKLPAALVALINHPKVRLHGVNIKNDFRKLARDFPEVTAEPLIEKCVDLGLWCNEVCETGGRWSLERLTNFIAKKAMDKSKKVRMSKWHVIPLDENQLMYAAIDVYIGQVIYRELERREKVKIKNEEEFKEKNGDAAFKAMKALGETFLTKINEVTL
Turning to B1, the binding result is recorded as “binds”.
